What all share (experiment): EMSA
Conditions in all cases: residues 39-118

By UniProt entry, the sequences of proteins in these tests, tags left out. Residues count along the entry.
UniProt P48431, 39-118 Y110A: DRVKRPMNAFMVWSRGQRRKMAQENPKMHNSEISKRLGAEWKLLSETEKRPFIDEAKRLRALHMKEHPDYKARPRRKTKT
UniProt P48431, 39-118 Y108A: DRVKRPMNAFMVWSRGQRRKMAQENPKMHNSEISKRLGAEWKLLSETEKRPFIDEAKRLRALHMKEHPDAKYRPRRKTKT
UniProt P48431, 39-118 N46A: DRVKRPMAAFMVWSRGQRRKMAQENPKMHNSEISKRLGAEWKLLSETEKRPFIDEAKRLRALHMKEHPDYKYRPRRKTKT
UniProt P48431, 39-118 R43A: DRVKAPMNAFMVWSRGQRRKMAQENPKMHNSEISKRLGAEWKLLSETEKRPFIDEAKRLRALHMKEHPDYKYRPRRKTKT
UniProt P48431, 39-118: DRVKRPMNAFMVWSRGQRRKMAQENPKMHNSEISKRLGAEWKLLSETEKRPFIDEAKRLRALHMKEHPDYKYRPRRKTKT

Series [1] has as its target Sox2 HMG Y74A Y110A (human) (UniProt P48431).
The target of series [2] is Sox2 HMG Y72A Y108A (human) (UniProt P48431).
The target of series [3] is Sox2 HMG N10A N46A (human) (UniProt P48431).
The target of series [4] is Sox2 HMG R7A R43A (human) (UniProt P48431).
A further series addresses Sox2 HMG DBD WT (human) (UniProt P48431).

For at least one entry, the source does not settle the construct or the ends of the probe.

As a reminder, the Kd is the free concentration of one partner at which half of the binding sites on the other are occupied at equilibrium, for simple one-to-one binding. Read a low Kd as tighter binding.

In the case of “TGGAGAATCCCGGTGCCGAGGCCGCTCAATTGGTCGTAGACAGCTCTAGCACCGCTTAAACGCACGTACGCTTTGTTTGGATGCTAATAACCGCCAAGGGGATTACTCCCTAGTCTCCAGGCACGTGTGGTTACGAGGCTATCGT (double strand) [DNA 2RF]”, the Kd in series [1] was found to be 5.6 nM; in series [2], 3.5 nM; in series [3], 19 nM; in series [4] it was 4.4 nM; in the series with Sox2 HMG DBD WT (human) it was 3.3 nM.

The record behind these values is doi:10.1101/2022.01.18.476780.
